These are yes or no findings as the source states them, for the method shown. Binding seen in cells or lysates may run through a third protein. Some binding calls cover weakened binding; strength is not graded here. For some of these results: Where a sequence is shown, tags or fusion partners need not be part of it.
Assays:
[1] = target: T1, mouse Ptch1 (pcDNA3-mPtch1) (mouse) (UniProt Q61115); assay: co-IP; NIH3T3/Cas9 Ptch1 KO cells transfected with mouse Ptch1, stimulated with Shh for 24 h; IP of Ptch1 and reciprocal IP of endogenous Boc, Western blot
T1 sequence: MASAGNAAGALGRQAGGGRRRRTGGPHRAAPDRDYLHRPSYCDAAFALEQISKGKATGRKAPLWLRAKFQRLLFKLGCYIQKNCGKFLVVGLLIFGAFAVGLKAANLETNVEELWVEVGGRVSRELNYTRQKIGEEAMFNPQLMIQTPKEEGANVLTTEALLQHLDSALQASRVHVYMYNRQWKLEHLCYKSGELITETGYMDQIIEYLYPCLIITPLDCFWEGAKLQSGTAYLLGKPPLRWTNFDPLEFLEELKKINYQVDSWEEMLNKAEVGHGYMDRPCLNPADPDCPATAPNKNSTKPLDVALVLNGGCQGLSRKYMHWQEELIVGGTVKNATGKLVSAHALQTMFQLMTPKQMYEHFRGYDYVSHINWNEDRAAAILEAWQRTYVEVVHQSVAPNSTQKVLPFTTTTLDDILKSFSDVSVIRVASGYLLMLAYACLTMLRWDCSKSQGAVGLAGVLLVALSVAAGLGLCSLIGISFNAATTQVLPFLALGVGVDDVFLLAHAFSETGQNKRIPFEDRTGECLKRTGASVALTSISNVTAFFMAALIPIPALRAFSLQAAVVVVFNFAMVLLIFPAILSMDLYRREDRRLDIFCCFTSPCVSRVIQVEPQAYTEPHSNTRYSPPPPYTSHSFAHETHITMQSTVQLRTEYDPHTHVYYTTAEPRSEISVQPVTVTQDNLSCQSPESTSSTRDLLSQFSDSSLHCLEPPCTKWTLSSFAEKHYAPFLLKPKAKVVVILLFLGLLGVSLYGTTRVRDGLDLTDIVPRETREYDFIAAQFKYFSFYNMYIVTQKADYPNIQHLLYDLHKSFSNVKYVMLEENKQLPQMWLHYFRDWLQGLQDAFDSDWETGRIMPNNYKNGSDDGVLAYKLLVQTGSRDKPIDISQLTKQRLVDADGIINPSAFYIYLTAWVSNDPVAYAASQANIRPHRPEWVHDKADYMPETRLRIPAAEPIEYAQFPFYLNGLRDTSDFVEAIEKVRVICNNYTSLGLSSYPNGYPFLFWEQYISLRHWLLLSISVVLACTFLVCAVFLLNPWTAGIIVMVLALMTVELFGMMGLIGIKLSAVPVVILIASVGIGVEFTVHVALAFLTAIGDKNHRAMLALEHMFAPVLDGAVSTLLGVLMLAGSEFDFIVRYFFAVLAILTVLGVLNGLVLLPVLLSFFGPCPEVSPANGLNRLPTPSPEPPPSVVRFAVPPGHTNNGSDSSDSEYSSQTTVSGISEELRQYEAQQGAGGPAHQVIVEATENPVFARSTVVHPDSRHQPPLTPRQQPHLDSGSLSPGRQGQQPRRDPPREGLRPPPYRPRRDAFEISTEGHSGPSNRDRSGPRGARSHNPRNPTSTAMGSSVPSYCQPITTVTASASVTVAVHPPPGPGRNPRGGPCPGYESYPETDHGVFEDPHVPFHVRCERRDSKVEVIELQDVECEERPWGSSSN

[2] = target: T1, mouse Ptch1 (pcDNA3-mPtch1) (mouse); assay: co-IP; NIH3T3/Cas9 Ptch1 KO cells transfected with mouse Ptch1, unstimulated and 40 min after Shh (partial release at 40 min); IP of Ptch1 and reciprocal IP of endogenous Boc, Western blot
[3] = target: T2, mouse Ptch2, Myc-tagged (pCMV6-mPtch2-MycDDK) (mouse) (UniProt O35595); assay: co-IP; NIH3T3/Cas9 Ptch1 KO cells transfected with Myc-tagged Ptch2, stimulated with Shh protein (200 ng/mL) in serum-free medium for 40 min; IP of Ptch2 and reciprocal IP with antibody against endogenous Gas1, Western blot
T2 sequence: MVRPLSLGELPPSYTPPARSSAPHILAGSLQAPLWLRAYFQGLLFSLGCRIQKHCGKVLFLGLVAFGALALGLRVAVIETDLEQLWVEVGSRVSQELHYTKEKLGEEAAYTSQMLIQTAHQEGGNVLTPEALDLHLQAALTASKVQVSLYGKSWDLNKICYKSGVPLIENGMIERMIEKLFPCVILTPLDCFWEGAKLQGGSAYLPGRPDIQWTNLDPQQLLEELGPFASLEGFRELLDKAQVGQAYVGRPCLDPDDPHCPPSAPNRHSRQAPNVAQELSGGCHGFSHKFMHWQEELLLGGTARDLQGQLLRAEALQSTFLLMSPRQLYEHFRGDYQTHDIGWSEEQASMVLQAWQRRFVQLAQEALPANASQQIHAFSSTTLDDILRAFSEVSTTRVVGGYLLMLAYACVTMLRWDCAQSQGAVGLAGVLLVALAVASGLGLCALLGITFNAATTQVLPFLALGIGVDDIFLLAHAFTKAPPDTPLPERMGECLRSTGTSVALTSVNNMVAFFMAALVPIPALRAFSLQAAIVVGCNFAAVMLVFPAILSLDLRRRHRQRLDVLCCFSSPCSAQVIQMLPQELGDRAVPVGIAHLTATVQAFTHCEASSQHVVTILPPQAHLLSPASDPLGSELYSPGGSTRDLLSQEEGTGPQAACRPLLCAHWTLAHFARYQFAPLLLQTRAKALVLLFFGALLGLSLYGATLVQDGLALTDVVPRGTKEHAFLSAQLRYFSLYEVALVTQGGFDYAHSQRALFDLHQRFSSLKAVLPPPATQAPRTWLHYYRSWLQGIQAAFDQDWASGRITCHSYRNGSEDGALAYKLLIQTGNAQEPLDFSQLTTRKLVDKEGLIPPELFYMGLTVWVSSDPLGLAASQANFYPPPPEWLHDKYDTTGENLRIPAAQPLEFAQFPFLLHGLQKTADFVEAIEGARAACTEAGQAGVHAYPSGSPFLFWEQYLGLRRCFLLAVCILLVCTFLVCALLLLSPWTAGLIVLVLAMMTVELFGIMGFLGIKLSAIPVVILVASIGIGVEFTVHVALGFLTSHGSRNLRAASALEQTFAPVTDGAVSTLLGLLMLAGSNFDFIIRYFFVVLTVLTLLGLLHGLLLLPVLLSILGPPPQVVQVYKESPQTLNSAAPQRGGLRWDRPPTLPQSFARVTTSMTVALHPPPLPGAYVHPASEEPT

[4] = target: T2, mouse Ptch2, Myc-tagged (pCMV6-mPtch2-MycDDK) (mouse); assay: co-IP; NIH3T3/Cas9 Ptch1 KO cells transfected with Myc-tagged Ptch2, unstimulated (no Shh); IP of Ptch2 and reciprocal IP with antibody against endogenous Gas1, Western blot; lysis in 50 mM HEPES, 150 mM NaCl, 10% glycerol, 1% Nonidet P-40, 1 mM EDTA; protein A/G-agarose

- binding [2]: binds
- binding [3]: no binding
- binding [4]: no binding
B1: Boc (bioregional Cdon-binding protein), endogenous (receptor, UniProt Q6AZB0 26-1110)
chain: DLNEVPQVTVQPMSTVQKLGGTVILGCVVEPPWMNVTWRFNGKELNGSDDALGVFITRGTLVIAALNNHTVGRYQCVARMPAGAVASVPATVTLANLQDFKLDVQHVIEVDEGNTAVIACHLPESHPKAQVRYSVKQEWLEASRDNYLIMPSGNLQIVNASQEDEGMYKCAAYNPVTQEVKTSGSGDRLRVRRSTAEAARIIYPLEAQTVIVTKGQSLILECVASGIPPPRVTWAKDGSSIAAYNKTRFLLSNLLIDTTSEEDSGTYRCMASNGVGDPGAAVILYNVQVFEPPEVTVELSQLVIPWGQSAKLTCEVRGNPPPSVLWLRNAVPLTSSQRLRLSRRALRVVSVGPEDEGVYQCMAENAVGSAHAVVQLRTARPDTTLRPGRDTKPIAATPPMPPSRPSRPDQMLREQPGLVKPPTSSVQPTSLKCPGEEQVAPAEAPIILSSPRTSKTDSYELVWRPRHEGSSRTPILYYVVKHRKVTNSSDDWTISGIPANQHRLTLTRLDPGSLYEVEMAAYNCAGEGQTAMVTFRTGRRPKPEIVASKEQQIQRDDPGASLQSSSQPDHGRLSPPEAPDRPTISTASETSVYVTWIPRGNGGFPIQSFRVEYKKLKKVGDWILATSAIPPSRLSVEITGLEKGISYKFRVRALNMLGESEPSAPSRPYVVSGYSGRVYERPVAGPYITFTDAVNETTIMLKWMYIPASNNNTPIHGFYIYYRPTDSDNDSDYKKDMVEGDRYWHSISHLQPETSYDIKMQCFNEGGESEFSNVMICETKARKFSGQPGRPPPLTLAPPQPPPLETMERPVGTGAMVARASDLPYLIVGVVLGSIVLIIVTFIPFCLWRAWSKQKHTTDLGFPRSALLSSSCQYTMVPLEGLPGHQANGQPYLGGVSGRACVSRVHGSRGCPAATVGCPGRKPQQHCPGELAQQREDTNSQLRQPIVSNGYDLQNQQVARGPQCASGVGAFLYTLPDDSTHQLLQPQDCCHLQKQPVTTCQTAVRRTSESPGLESSWDPPYHSGPRCCLGLVPVEEVDSSDSCQVGGGDWSSQHPSGTYTGQERGMRFSPSPSVHVSFETPPPTI
- binding [1]: no binding (condition: after Shh for 24 h)
